This is an account of results in article PMC11514447, “Eukaryotic initiation factor 4B is a multi-functional RNA binding protein that regulates histone mRNAs”.

Sequences of proteins named here, by UniProt entry; tags and fusion partners are left off.
UniProt P23588: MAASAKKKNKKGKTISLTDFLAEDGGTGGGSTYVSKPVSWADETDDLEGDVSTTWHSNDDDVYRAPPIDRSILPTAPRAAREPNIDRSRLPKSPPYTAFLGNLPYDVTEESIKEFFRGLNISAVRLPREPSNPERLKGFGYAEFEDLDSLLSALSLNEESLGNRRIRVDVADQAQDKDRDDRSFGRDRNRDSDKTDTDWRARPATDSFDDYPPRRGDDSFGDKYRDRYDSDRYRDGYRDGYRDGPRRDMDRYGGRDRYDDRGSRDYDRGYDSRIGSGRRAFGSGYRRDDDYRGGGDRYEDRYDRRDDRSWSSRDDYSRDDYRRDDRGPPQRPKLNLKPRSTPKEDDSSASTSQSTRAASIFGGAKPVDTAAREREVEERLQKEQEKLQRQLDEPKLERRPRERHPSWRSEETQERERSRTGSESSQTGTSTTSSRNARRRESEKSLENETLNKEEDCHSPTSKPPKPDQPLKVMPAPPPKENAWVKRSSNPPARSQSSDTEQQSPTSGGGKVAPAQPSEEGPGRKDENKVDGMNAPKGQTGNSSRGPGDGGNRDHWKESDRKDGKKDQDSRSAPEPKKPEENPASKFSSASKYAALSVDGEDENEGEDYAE
UniProt P51114: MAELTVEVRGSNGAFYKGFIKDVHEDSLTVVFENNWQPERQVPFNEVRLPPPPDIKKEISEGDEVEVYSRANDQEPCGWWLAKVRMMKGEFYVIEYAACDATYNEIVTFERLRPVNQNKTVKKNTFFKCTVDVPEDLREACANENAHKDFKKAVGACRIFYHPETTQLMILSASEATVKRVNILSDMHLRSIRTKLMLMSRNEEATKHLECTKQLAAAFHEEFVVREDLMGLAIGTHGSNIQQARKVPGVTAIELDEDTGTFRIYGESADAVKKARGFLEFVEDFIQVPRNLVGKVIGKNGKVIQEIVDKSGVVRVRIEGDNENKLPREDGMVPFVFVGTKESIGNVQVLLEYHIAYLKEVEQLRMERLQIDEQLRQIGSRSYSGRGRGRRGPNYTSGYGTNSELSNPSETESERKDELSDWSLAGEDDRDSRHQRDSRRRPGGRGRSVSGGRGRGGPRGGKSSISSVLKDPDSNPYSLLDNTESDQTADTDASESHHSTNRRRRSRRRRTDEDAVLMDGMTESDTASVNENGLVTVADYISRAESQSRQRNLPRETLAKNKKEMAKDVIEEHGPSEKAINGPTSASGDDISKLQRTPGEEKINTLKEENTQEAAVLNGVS
UniProt Q13283: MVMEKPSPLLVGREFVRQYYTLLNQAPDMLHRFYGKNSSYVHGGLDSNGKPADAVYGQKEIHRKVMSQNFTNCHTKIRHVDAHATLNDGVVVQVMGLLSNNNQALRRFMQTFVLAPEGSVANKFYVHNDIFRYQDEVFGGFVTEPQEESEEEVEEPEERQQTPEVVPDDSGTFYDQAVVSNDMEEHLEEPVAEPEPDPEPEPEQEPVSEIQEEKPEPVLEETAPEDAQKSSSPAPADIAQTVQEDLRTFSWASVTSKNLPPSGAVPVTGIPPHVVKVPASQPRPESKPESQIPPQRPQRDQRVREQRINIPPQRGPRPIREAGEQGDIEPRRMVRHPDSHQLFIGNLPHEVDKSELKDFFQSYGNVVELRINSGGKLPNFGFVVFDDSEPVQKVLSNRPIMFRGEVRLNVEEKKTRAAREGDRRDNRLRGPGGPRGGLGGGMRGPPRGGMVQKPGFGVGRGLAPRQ
UniProt P04406: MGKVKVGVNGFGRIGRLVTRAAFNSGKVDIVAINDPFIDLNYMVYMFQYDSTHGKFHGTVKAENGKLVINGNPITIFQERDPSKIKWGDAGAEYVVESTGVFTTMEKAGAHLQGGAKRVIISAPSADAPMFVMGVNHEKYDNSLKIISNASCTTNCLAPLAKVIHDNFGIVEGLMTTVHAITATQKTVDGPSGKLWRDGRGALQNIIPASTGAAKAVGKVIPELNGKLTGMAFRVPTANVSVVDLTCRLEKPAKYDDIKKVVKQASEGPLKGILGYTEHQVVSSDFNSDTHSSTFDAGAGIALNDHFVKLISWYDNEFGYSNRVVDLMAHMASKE
UniProt Q14240: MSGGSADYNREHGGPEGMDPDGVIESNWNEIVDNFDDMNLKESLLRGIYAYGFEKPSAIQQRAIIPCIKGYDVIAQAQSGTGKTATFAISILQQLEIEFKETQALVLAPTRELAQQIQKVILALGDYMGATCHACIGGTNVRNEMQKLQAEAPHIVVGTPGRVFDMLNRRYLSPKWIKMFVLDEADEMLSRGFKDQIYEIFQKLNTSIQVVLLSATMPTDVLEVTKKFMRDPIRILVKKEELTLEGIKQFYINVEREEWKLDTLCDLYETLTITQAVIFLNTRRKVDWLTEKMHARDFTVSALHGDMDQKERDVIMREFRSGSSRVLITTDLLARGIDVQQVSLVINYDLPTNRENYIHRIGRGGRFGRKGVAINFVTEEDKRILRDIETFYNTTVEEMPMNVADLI
UniProt P38919: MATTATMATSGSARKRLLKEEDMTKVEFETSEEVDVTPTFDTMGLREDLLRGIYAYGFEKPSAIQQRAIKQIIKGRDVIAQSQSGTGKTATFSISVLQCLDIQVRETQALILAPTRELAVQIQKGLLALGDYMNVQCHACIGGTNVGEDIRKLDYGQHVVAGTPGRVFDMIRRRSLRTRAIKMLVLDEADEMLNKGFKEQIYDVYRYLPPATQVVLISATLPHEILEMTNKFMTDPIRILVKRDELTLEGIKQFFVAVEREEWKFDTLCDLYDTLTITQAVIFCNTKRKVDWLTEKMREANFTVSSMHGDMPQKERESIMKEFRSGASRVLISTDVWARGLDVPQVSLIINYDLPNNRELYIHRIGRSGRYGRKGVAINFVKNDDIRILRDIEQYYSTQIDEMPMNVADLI

For the assay, the target named is eukaryotic initiation factor 4B (human (endogenous in DoHH-2 and GM01953)) (UniProt P23588). Nature of the assay: affinity purification with mass spectrometry; eIF4B antibody covalently coupled to Dynabeads; DoHH-2 and GM01953 lysates, 2 h at 4°C; RNA digested with RNase T1; washed three times in whole-cell lysis buffer; LC-MS/MS; enrichment against rabbit IgG control; triplicate.

These are yes or no findings as the source states them, for the method shown. Binding seen in cells or lysates may run through a third protein. Here binding means that the protein was enriched with, or labelled near, the bait; the list need not be complete. No binding means not detected with the bait.

In the case of FXR1 (from UniProt P51114 1-621), the binding result is on record as “binds”.

For G3BP1 (from UniProt Q13283 1-466), the binding result is given as “binds”.

With GAPDH (from UniProt P04406 1-335), the binding result was “no binding”.

Take eIF4A2 (from UniProt Q14240 1-407): the binding result was “binds”. In the case of eIF4A3 (from UniProt P38919 1-411), the binding result is “binds”.

B1: UPF1 (up-frameshift protein 1) (protein, UniProt Q92900 1-1129)
chain: MSVEAYGPSSQTLTFLDTEEAELLGADTQGSEFEFTDFTLPSQTQTPPGGPGGPGGGGAGGPGGAGAGAAAGQLDAQVGPEGILQNGAVDDSVAKTSQLLAELNFEEDEEDTYYTKDLPIHACSYCGIHDPACVVYCNTSKKWFCNGRGNTSGSHIVNHLVRAKCKEVTLHKDGPLGETVLECYNCGCRNVFLLGFIPAKADSVVVLLCRQPCASQSSLKDINWDSSQWQPLIQDRCFLSWLVKIPSEQEQLRARQITAQQINKLEELWKENPSATLEDLEKPGVDEEPQHVLLRYEDAYQYQNIFGPLVKLEADYDKKLKESQTQDNITVRWDLGLNKKRIAYFTLPKTDSGNEDLVIIWLRDMRLMQGDEICLRYKGDLAPLWKGIGHVIKVPDNYGDEIAIELRSSVGAPVEVTHNFQVDFVWKSTSFDRMQSALKTFAVDETSVSGYIYHKLLGHEVEDVIIKCQLPKRFTAQGLPDLNHSQVYAVKTVLQRPLSLIQGPPGTGKTVTSATIVYHLARQGNGPVLVCAPSNIAVDQLTEKIHQTGLKVVRLCAKSREAIDSPVSFLALHNQIRNMDSMPELQKLQQLKDETGELSSADEKRYRALKRTAERELLMNADVICCTCVGAGDPRLAKMQFRSILIDESTQATEPECMVPVVLGAKQLILVGDHCQLGPVVMCKKAAKAGLSQSLFERLVVLGIRPIRLQVQYRMHPALSAFPSNIFYEGSLQNGVTAADRVKKGFDFQWPQPDKPMFFYVTQGQEEIASSGTSYLNRTEAANVEKITTKLLKAGAKPDQIGIITPYEGQRSYLVQYMQFSGSLHTKLYQEVEIASVDAFQGREKDFIILSCVRANEHQGIGFLNDPRRLNVALTRARYGVIIVGNPKALSKQPLWNHLLNYYKEQKVLVEGPLNNLRESLMQFSKPRKLVNTINPGARFMTTAMYDAREAIIPGSVYDRSSQGRPSSMYFQTHDQIGMISAGPSHVAAMNIPIPFNLVMPPMPPPGYFGQANGPAAGRGTPKGKTGRGGRQKNRFGLPGPSQTNLPNSQASQDVASQPFSQGALTQGYISMSQPSQMSQPGLSQPELSQDSYLGDEFKSQIDVALSQDSTYQGERAYQHGGVTGLSQY
In the case of B1, the binding entry is on record as “binds”.
